± gives the standard deviation. Only a part is listed here, and it is no random draw. Many of these values have a large error. The list shows a part of the results.

One assay concerns MIWI (PIWIL1) piRISC loaded with L1MC piRNA (30 nt). Nature of the assay: pre-steady-state target cleavage rate (min^-1); higher = faster piRNA-guided slicing of the target. Conditions: guide: L1MC piRNA 5'p-UAACUAAAUACUAUGCAAGCUGUAGGUCCU; auxiliary factor: none (no GTSF1). In short, it runs like this:
(§1)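 Cleave-'n-Seq: 1 nM active affinity-purified piRISC with one synthetic guide and 0.1 nM transcribed, DNA-blocked target RNA library were mixed, with or without 500 nM GTSF1 partner protein, in HEPES–potassium acetate buffer at 33 °C for 0–8 or 0–960 min. Uncleaved targets were sequenced and normalised to depth and to weakly complementary targets, three trials were pooled, and k3 was capped at 0.0001 min^-1. The pre-steady-state cleavage rate was fitted […].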
Take UCCUGGAUGUCGAUGCAUAGUAAAUAGUUA: the “pre-steady-state target cleavage rate” value came out at 0.000891 ± 0.0057.
Still for that read-out and setting: the value for UCCUCCUACAGCUACCAUAGUAUUUAGUUA was 0.00227 ± 0.0031.
Still for that read-out and setting: with UCCUGGAUGUCGAACGUAAAGUAUUUAGUUA the figure was 0.000221 ± 0.022; with UCCUGGAUGAGCUUCCAUACUAUUUAGUUA, 0.00087 ± 0.0057.
Same read-out and setting: the value for UCCUGGAUCAGCAAGCAUAGUAUUUUCAAA was 0.000752 ± 0.0091; that for UCCUGGAUGUCCUUGCAUAGUAAUUUGUUA was 0.00192 ± 0.0054.
On to UCCUGGAUCACGAUGCAUAGUAUUUAGUUA, for which the “pre-steady-state target cleavage rate” value was found to be 0.0027 ± 0.0031.
Still for that read-out and setting: the value for UCCUGGAUGUCCUUGGAUAGUAUAUAGUUA was 0.00074 ± 0.0096; that for UCCUGGUACAGCAUCCAUAGUAUUUAGUUA was 0.00138 ± 0.0048; that for UCCUGGAUGUCGAACGUACGUAUUUAGUUA was 0.000111 ± 0.048.
Same read-out and setting: with UCCUGGAUGUCCAAGCAUAGUAUUUAGUAA the figure was 0.00147 ± 0.0062; with UCCUGGAUGUCGUUUCAUAGUAUUUAGUUA, 0.00066 ± 0.0085; with UCCUGGAUGUCGUUGCAUAGUAUUUUGUAA, 0.000625 ± 0.0087.
On the same count and under the same terms, the value for UCCUGGAUGUGCUACCAUAGUAUUUAGUUA was 0.000899 ± 0.0063; that for UCCUGGAUGUCCUUCCAUAGUAUUUAGUAA was 0.000661 ± 0.0085; that for UCCUGGAUGUCGAAGCAUACAUUUUAGUUA was 0.00024 ± 0.027.
As to UCCUGGAUGUCGUUCCUUAGUAUUUAGUUA, the “pre-steady-state target cleavage rate” value was found to be 0.000157 ± 0.032.
The same measure, in the same setting: the value for UCCUGGAUGUCGAAGCAUAGUAUUUAGUGA was 0.00137 ± 0.0041.
For the sequence UCCUGGAUGUCGAUGCAUACUAUUUUGUUA, the “pre-steady-state target cleavage rate” value stood at 0.000368 ± 0.02.
As to UCCUGGAUGUGCAAGCAUAGUAUUUAGUUA, the “pre-steady-state target cleavage rate” value turned out to be 0.00255 ± 0.0035.
Same read-out and setting: with “UCCUGGAUGUCCUUGCAUACAUAAAUCAAA [g12:g19:cont:t1A]” the figure was 0.000678 ± 0.013; with UCCUGGAUGUCGAUCGCAUAGUAUUUAGUUA, 0.000904 ± 0.006; with UCCUGGAUGUCGAUGCAUUGUAUUUAGUUA, 0.000873 ± 0.0083.
On the same count and under the same terms, the value for UCCUGGAUGUCCUUCGCAUAGUAUUUAGUUA was 0.00228 ± 0.0041; that for UCCUGGAACAGCUUGCAUAGAUAUUUAGUUA was 0.0025 ± 0.0032.
As to UCCUGGAUGUCGAAGGAUAGUAUAUAGUUA, the “pre-steady-state target cleavage rate” value is 0.000114 ± 0.046.
Regarding UCCUGGAACAGCUUCGAUAGUAUUUACAAA, the “pre-steady-state target cleavage rate” value came out at 0.000504 ± 0.016.
Same read-out and setting: the value for UCCUGGAUCAGCUUGCAUAGUAAUAAGUUA was 0.00256 ± 0.0037.
Same read-out and setting: the value for UCCUGGAUCAGGAAGCAUAGUAUUUACAAA was 0.000783 ± 0.0073; that for UCCUGGUACAGCUUCGAUAGUAUUUUCAAA was 0.00091 ± 0.008.
Take UCCUCCUACAGCUUGCAUAGAUAUUUAGUUA: the “pre-steady-state target cleavage rate” value was determined as 0.00136 ± 0.0053.
Still for that read-out and setting: the value for UCCUCCUACAGCUACGAUAGUAUUUAGAAA was 0.00028 ± 0.01.
Still for that read-out and setting: with UCCUCCUACAGCUUGGUUAGUAUUUACAAA the figure was 0.00103 ± 0.0038; with UCCUGGAUGUCGAAGCAUUGAAUUUAGUUA, 0.00041 ± 0.015; with UCCUGGAUGUCGAUGGUAAGUAUUUAGUUA, 0.000126 ± 0.021.
Same read-out and setting: with UCCUGGAUGUCGAUGCAUAGUUAUUAGUUA the figure was 0.00121 ± 0.0062; with UCCUGGAUGUCGAAGCAUGAGUAUUUAGUUA, 0.000491 ± 0.012; with UCCUCCUACAGCUUGCAAUCUAUUUAGUAA, 0.00165 ± 0.0038.
On to UCCUGCUACAGCUUCGAUAGUAUUUUCAAA, for which the “pre-steady-state target cleavage rate” value stood at 0.00035 ± 0.02.

A further assay relates to EfPiwi piRISC loaded with L1MC piRNA (26 nt). In words: pre-steady-state target cleavage rate (min^-1); guide: L1MC piRNA 5'p-UAACUAAAUACUAUGCAAGCUGUAGG; MIWI and MILI are mouse PIWI proteins and EfPiwi is from a freshwater sponge; tags in brackets are library labels; higher = faster piRNA-guided slicing of the target. The following applies: auxiliary factor: 500 nM Ephydatia muelleri Gtsf1. In short, it runs like this:
as §1
In the case of UCCUGGAUGUCGAUGCAUAGUAAAUAGUUA, the “pre-steady-state target cleavage rate” value came to 0.000546 ± 0.01.
On the same count and under the same terms, with UCCUGGAUGUCGAACGUAAAGUAUUUAGUUA the figure was 0.000462 ± 0.012.
Consider UCCUGGAUGAGCUUCCAUACUAUUUAGUUA, for which the “pre-steady-state target cleavage rate” value came out at 0.000388 ± 0.0065.
With UCCUGGAUCAGCAAGCAUAGUAUUUUCAAA, the “pre-steady-state target cleavage rate” value was 0.00165 ± 0.0038.
Same read-out and setting: with UCCUGGAUGUCCUUGCAUAGUAAUUUGUUA the figure was 0.000383 ± 0.0069; with UCCUGGAUCACGAUGCAUAGUAUUUAGUUA, 0.0115 ± 0.004.
Same read-out and setting: the value for UCCUGGAUGUCCUUGGAUAGUAUAUAGUUA was 0.000834 ± 0.01; that for UCCUGGUACAGCAUCCAUAGUAUUUAGUUA was 0.0017 ± 0.0028; that for UCCUGGAUGUCGAACGUACGUAUUUAGUUA was 0.000195 ± 0.03.
Still for that read-out and setting: the value for UCCUGGAUGUCCAAGCAUAGUAUUUAGUAA was 0.00145 ± 0.0065.
Consider UCCUGGAUGUCGUUUCAUAGUAUUUAGUUA, for which the “pre-steady-state target cleavage rate” value worked out at 0.000338 ± 0.015.
The same measure, in the same setting: the value for UCCUGGAUGUCGUUGCAUAGUAUUUUGUAA was 0.000211 ± 0.026; that for UCCUGGAUGUGCUACCAUAGUAUUUAGUUA was 0.00116 ± 0.0036.
The same measure, in the same setting: the value for UCCUGGAUGUCCUUCCAUAGUAUUUAGUAA was 0.00142 ± 0.0054; that for UCCUGGAUGUCGAAGCAUACAUUUUAGUUA was 0.000204 ± 0.011; that for UCCUGGAUGUCGUUCCUUAGUAUUUAGUUA was 0.000829 ± 0.0077.
Same read-out and setting: the value for UCCUGGAUGUCGAUGCAUACUAUUUUGUUA was 0.000154 ± 0.022; that for UCCUGGAUGUGCAAGCAUAGUAUUUAGUUA was 0.00427 ± 0.0022.
As for “UCCUGGAUGUCCUUGCAUACAUAAAUCAAA [g12:g19:cont:t1A]”, the “pre-steady-state target cleavage rate” value came out at 0.000112 ± 0.038.
The same measure, in the same setting: with UCCUGGAUGUCGAUCGCAUAGUAUUUAGUUA the figure was 0.00287 ± 0.0032; with UCCUGGAUGUCGAUGCAUUGUAUUUAGUUA, 0.000928 ± 0.0061.
Same read-out and setting: the value for UCCUGGAUGUCCUUCGCAUAGUAUUUAGUUA was 0.01 ± 0.0052.
On the same count and under the same terms, the value for UCCUGGAACAGCUUGCAUAGAUAUUUAGUUA was 0.000632 ± 0.0068; that for UCCUGGAACAGCUUCGAUAGUAUUUACAAA was 0.00173 ± 0.0039; that for UCCUGGAUCAGCUUGCAUAGUAAUAAGUUA was 0.00234 ± 0.0018.
For UCCUGGUACAGCUUCGAUAGUAUUUUCAAA, the “pre-steady-state target cleavage rate” value was found to be 0.000683 ± 0.0092.
Same read-out and setting: the value for UCCUCCUACAGCUUGCAUAGAUAUUUAGUUA was 0.00501 ± 0.0032; that for UCCUCCUACAGCUACGAUAGUAUUUAGAAA was 0.000989 ± 0.0068.
Still for that read-out and setting: with UCCUCCUACAGCUUGGUUAGUAUUUACAAA the figure was 0.0023 ± 0.0035; with UCCUGGAUGUCGAAGCAUUGAAUUUAGUUA, 0.000718 ± 0.0078.
Still for that read-out and setting: with UCCUGGAUGUCGAUGCAUAGUUAUUAGUUA the figure was 0.00078 ± 0.0073; with UCCUGGAUGUCGAAGCAUGAGUAUUUAGUUA, 0.00018 ± 0.029; with UCCUGCUACAGCUUCGAUAGUAUUUUCAAA, 0.00274 ± 0.0034.

(Values after the supplement of paper PMC10338343.)
